Out of some 340,000 compounds screened, about 170 (0.05%) were called active. The inconclusive results got no clear call from the source; some entries with a clear call stand among them for comparison. Calls come from the whole dose curve; as a rule, active = well fitted inhibition curve with a large enough effect in the signal ratio, with a control signal flat (not every such curve was filed as active); inconclusive = small, poorly fitted or top-dose-only effect, or effect the other way, or a change in a side signal; inactive = flat fitted curve, though single readings scatter; the % refers to the signal ratio. Where the call is inconclusive, the potency comes from a doubtful curve fit.
Experiment: qHTS Assay to Find Inhibitors of Chronic Active B-Cell Receptor Signaling;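 for activity change, negative = inhibition: plate controls were basal doxycycline-induced cells for no effect and cells given 10 µM MG132 for full effect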
Settings: ABC-DLBCL IkBa-CBG/CBR reporter, luminescence ratio (green luciferase fused to IkBa over red control in TMD8 lymphoma cells), 4 h; activity change, negative = inhibition: at 46.1 µM (top of the series) unless noted
Summary of the method: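 TMD8 ABC-DLBCL cells carrying doxycycline-inducible green luciferase fused to IkappaBalpha plus unfused red luciferase were exposed to compounds (up to 46 uM) for 4 hrs at 37C. Activity came from the overlap-corrected green/red luminescence ratio.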
Potency is the fitted concentration of half-maximal effect.

SMILES	activity change, negative = inhibition	Potency
Cc1cc(C)n(CC(=O)n2nc(C)cc2C)n1	inconclusive: 15.8%	–
COc1ccc(-c2coc(CCC(=O)N3CCN(c4cc(C)ccc4C)CC3)n2)cc1	inactive	–
CC1CCCCN1C(=O)CCS(=O)(=O)c1cc2c(cc1Cl)NC(=O)CO2 (stereo unspecified)	inactive	–
CCOC(=O)CSc1cc(-c2ccccc2)nc2ncnn12	inconclusive: 7.23%	–
CC1(C)C[C@H]2C3=CCC4[C@@]5(C)CC[C@H](O)[C@](C)(CO)C5CC[C@@]4(C)[C@]3(C)C[C@H]3O[C@@H]1[C@H](O)[C@]32CO (stereo partly specified)	inactive	–
O=C(COc1ccc(S(=O)(=O)N2CCOCC2)cc1Cl)NCCCn1ccnc1	inactive	–
COc1cccc(C(=O)Nc2ncc3c(n2)CC(C)CC3=O)c1 (stereo unspecified)	–	inconclusive: 6.51 µM [rising, full curve]
Cc1ccc(NNC(=O)c2cc(C)on2)c(C)c1	inconclusive: 12.5%	–
COc1ccc(C(=O)N2CCN(c3cccc(C)c3C)CC2)cc1S(=O)(=O)NC1CC1	inconclusive: -0.751%	–
CCCCOc1ccc(CSCCN)cc1Cl	–	inconclusive: 2.51 µM [rising, full curve]
O=C(Nc1cccc(NC(=O)c2ccccc2)n1)c1ccccc1	inconclusive: -11.1%	–
OC(CNCc1ccccc1F)COc1cccc2ccccc12 (stereo unspecified)	inactive	–
COc1cccc(/C=N/NC(=O)c2ccc3nc[nH]c3c2)c1	inconclusive: 2.08%	–
Cn1c(SCC(=O)NC(c2ccccc2)c2ccccc2)nnc1-c1cccs1	inconclusive: 0.941%	–
Cc1ccccc1NC(=O)c1c(-c2ccccc2)noc1C	inconclusive: 7.01%	–
CNc1ccc(Br)cc(C(=O)/C=C/c2cccc(OC)c2OC)c1=O	–	inconclusive: 6.51 µM [falling, single point]
CC(C)(C)n1nnnc1C(c1cccc(C#N)c1)N1CCCCCC1 (stereo unspecified)	inactive	–
O=C(OCC(=O)N1CCOCC1)c1ccc(Cl)c(S(=O)(=O)N2CCc3ccccc32)c1	inactive	–
COc1ccc(NC(=O)c2ccco2)cc1NC(=O)c1c(OC)cccc1OC	–	inconclusive: 35.5 µM [falling, single point]
O=C(Nc1ccccc1)N1CCn2c1nc1ccccc12	–	inconclusive: 5.17 µM [falling, partial curve, poor fit]
Cc1ccc(NC(=O)c2nc[nH]c2C(=O)Nc2ccc(C)cc2)cc1	inactive	–

SMILES	activity change, negative = inhibition	Potency
COc1ccc(/C=N/N2C(=O)CN(C(=O)c3ccccc3)C2c2ccc(OC)cc2)cc1 (stereo unspecified)	inconclusive: -85.5%	–
O=C(O)c1ccc(Cl)cc1Nc1nc2cc(Cl)ccc2o1	–	inconclusive: 7.08 µM [rising, full curve, poor fit]
Cc1ccc2oc(=O)c3cnn(CC(=O)N(Cc4ccco4)C4CCCCC4)c3c2c1	inconclusive: 5.79%	–
Cc1ccc(-c2csc(NC(=S)NC(=O)/C=C/c3ccco3)n2)cc1	–	inconclusive: 6.31 µM [falling, single point]
O=C(c1ccc(Cl)c(Cl)c1)N1CCC(=O)N(C(COCc2ccc(Cl)cc2)Cc2ccccc2)CC1 (stereo unspecified)	inconclusive: -17.4%	–
CC(=O)N1N=C(c2cccs2)CC1c1ccc(Br)cc1 (stereo unspecified)	inconclusive: -6.42%	–
O=C(COc1ccc2ccccc2c1)N1CCCC1	–	inconclusive: 18.4 µM [falling, partial curve, poor fit]
Cc1cc(N)n2ncc(-c3ccccc3)c2n1	–	inconclusive: 16.4 µM [falling, single point]
C=CCOC(=O)c1ccc(-n2cnc(C)n2)nc1	inconclusive: 8.55%	–
O=C1c2ccccc2C(Nc2ccccc2)N1c1ccc(Cl)cn1 (stereo unspecified)	–	inconclusive: 1.46 µM [rising, partial curve, poor fit]
C[C@H](NC(=O)c1ccccc1Cl)C(=O)OCCOc1cccc(Cl)c1	inconclusive: -2.39%	–
O=C(NC1CCCCC1)c1cc(-n2cnnc2)ccc1Cl	inconclusive: 3.74%	–
CC(=O)Nc1ccc(NC(=O)COC(=O)Cc2c[nH]c3ccccc23)cc1	inconclusive: -8.01%	–
CC1(C)Cc2nc3sc4c(=O)n(CC(=O)NCc5ccccc5)cnc4c3cc2CO1	inactive	–
O=C(COc1ccc(-n2cnnn2)cc1)Nc1ccc(F)c(Cl)c1	inconclusive: 4.61%	–
S=c1[nH]nc(Cc2ccc(Cl)cc2)o1	inconclusive: 6.76%	–
COc1ccc(-c2cn3ccc(C)cc3n2)cc1	–	inconclusive: 35.5 µM [rising, single point]
CC(=O)Nc1ccc(C(=O)OCc2ccc(Br)cc2)cc1	inconclusive: 1.81%	–
CCOC(=O)c1ccc(NC(=O)Cn2ncc(Cl)c(Cl)c2=O)cc1	inconclusive: 13.1%	–
O=C(O)CC1S/C(=N/N=C/c2ccc(-c3ccc(Cl)cc3[N+](=O)[O-])o2)NC1=O (stereo unspecified)	inactive	–
CCNC(=S)NNC(=O)c1cc(-c2ccc(OC)cc2)nc2ccccc12	inconclusive: -5.27%	–

By substructure: the compounds so far with an NH in an aromatic ring
SMILES	activity change, negative = inhibition	Potency
COc1cccc(/C=N/NC(=O)c2ccc3nc[nH]c3c2)c1	inconclusive: 2.08%	–
Cc1ccc(NC(=O)c2nc[nH]c2C(=O)Nc2ccc(C)cc2)cc1	inactive	–
CC(=O)Nc1ccc(NC(=O)COC(=O)Cc2c[nH]c3ccccc23)cc1	inconclusive: -8.01%	–
S=c1[nH]nc(Cc2ccc(Cl)cc2)o1	inconclusive: 6.76%	–

Following part:

SMILES	activity change, negative = inhibition	Potency
Cc1ccc(-n2cc(C(=O)c3cc(Cl)ccc3O)cc(C#N)c2=O)cc1	inconclusive: 2.73%	–
CCOc1cccc(C(=O)Nc2cc(C)ccc2NC(=O)c2ccco2)c1	inconclusive: -2.51%	–
CCC(=O)Nc1cc(=O)[nH]c2nc(-c3ccc(Cl)cc3)nn12	inconclusive: 12.5%	–
CCOC(=O)C(=CNc1ccc(OC)cc1[N+](=O)[O-])C(=O)OCC	inactive	–
CN(c1ccccc1)S(=O)(=O)c1cccc(NC(=O)CSc2ncc(C(F)(F)F)cc2Cl)c1	inconclusive: -0.0846%	–
O=C(c1cccnc1)N1CCN(Cc2ccc3ccccc3c2)CC1	inactive	–
COc1ccc(/C=N/NC(=O)c2ccc(NC(=O)c3cccc([N+](=O)[O-])c3)cc2)c(C(=O)O)c1OC	inconclusive: -24.6%	–
CCC(C)NC(=O)C1c2cc(OC)c(OC)cc2C(=O)N(C)C1c1ccc(OC)cc1 (stereo unspecified)	–	inconclusive: 0.103 µM [falling, full curve, poor fit]
CCOC(=O)C1=C(C)Nc2ccccc2N=C1NC(=O)Cc1ccc(OC)cc1	inactive	–
COc1ccc(CCN2C(=O)/C(=C\c3ccco3)SC2=S)cc1OC	–	inconclusive: 35.5 µM [cytotoxic, single point]
CCOC(=O)c1ccc(NC(=S)N(CCN2CCCCCC2)Cc2ccco2)cc1	inconclusive: -0.0881%	–
COc1ccccc1N(C(=O)c1snc(C(N)=O)c1N)C(C(=O)NC1CCCC1)c1ccco1 (stereo unspecified)	–	inconclusive: 17.8 µM [falling, single point]
CSc1nc(N)nc(SCCS(=O)(=O)c2ccc(Cl)cc2)c1C#N	inconclusive: -4.32%	–
N=c1c(S(=O)(=O)c2ccc(Cl)cc2)cc2c(=O)n3ccccc3nc2n1C1CCCCC1	–	inconclusive: 28.2 µM [falling, partial curve]
O=C(CSc1nc(=O)[nH]c2c1CCCC2)NCc1ccc(F)cc1	inactive	–
O=C(CNC(=O)c1ccccc1)Nc1ccsc1C(=O)O	–	inconclusive: 22.4 µM [falling, partial curve]
COc1cc(/C=C/C(=O)OCC(=O)NCc2ccco2)cc(OC)c1OC	inconclusive: -0.982%	–
CCn1nccc1C(=O)Nc1nccs1	inconclusive: 7.46%	–
COc1ccc(/C=C/C(=O)OCC(=O)NC2CCS(=O)(=O)C2)cc1 (stereo unspecified)	inactive	–
CCOC(=O)N1CCC(NC(=O)C2CCCN(Cc3nc(-c4cccc(C)c4)oc3C)C2)CC1 (stereo unspecified)	inconclusive: -2.57%	–
Clc1ccc(Cc2noc(-c3cccs3)n2)cc1	inconclusive: 6.2%	–

SMILES	activity change, negative = inhibition	Potency
CN(C)/C=C1\C(=O)ON=C1c1ccccc1	–	inconclusive: 35.5 µM [falling, single point]
O=C(O)c1ccc(S(=O)(=O)N[C@@H](Cc2ccc(O)cc2)C(=O)O)cc1	inactive	–
Cc1nc(NCCc2ccc(F)cc2)c(C#N)c(C)c1[N+](=O)[O-]	inconclusive: 0.331%	–
Cc1cc(C(=O)N2CCN(S(=O)(=O)c3ccccc3F)CC2)c(C)o1	inactive	–
COc1ccc(S(=O)(=O)N(C(C)=O)c2ccc3oc(=O)sc3c2)cc1	–	inconclusive: 20 µM [falling, single point]
C/C(=N\NC(=O)c1ccc(C)cc1)C1C(=O)c2ccccc2C1=O	–	inconclusive: 18.4 µM [falling, partial curve]
COc1cc(/C=N/NC(=O)CNc2n[nH]c(=O)[nH]c2=O)ccc1OCc1ccccc1	inconclusive: 1.22%	–
CCCN1Cc2cccc(C(=O)N3CCN(c4cc(Cl)ccc4C)CC3)c2C1=O	inconclusive: -20.7%	–
O=C(CN1C2CCC1CC(NC(=O)Nc1ccccc1)C2)NCc1ccco1 (stereo unspecified)	inconclusive: 5.85%	–
C/C(=N\Nc1nncc2ccccc12)c1ccc(O)cc1	–	inconclusive: 22.4 µM [falling, partial curve]
O=S(=O)(NCc1ccc2c(c1)OCO2)c1cccc(F)c1	inactive	–
CCC(NC(=S)NCc1ccc(F)cc1)c1ccc(C)cc1 (stereo unspecified)	inconclusive: 2.87%	–
O=C1/C(=C/c2ccccc2)CCCc2ccccc21	inactive	–
CC(C)C[C@H](NC(=O)N1c2ccccc2NC(=O)[C@@H]1C(C)C)C(=O)N1CCC[C@@H]1C(=O)O	inactive	–
COc1ccc(N2CC(NC(=O)C3CCCC3)CC2=O)cc1OC (stereo unspecified)	inconclusive: 17%	–
O=C(c1ccccc1Cl)N(C(=O)c1ccccc1Cl)c1nccc(-c2cccs2)n1	–	inconclusive: 16.4 µM [falling, partial curve, poor fit]
Cc1occc1-c1nnc(SCC(=O)Nc2nccs2)n1Cc1ccco1	inconclusive: 5.76%	–
O=C(COc1ccc2ccccc2c1)NCCn1ccc2ccccc21	inconclusive: 12.3%	–

Reference: PubChem BioAssay AID493014 (National Center for Advancing Translational Sciences (NCATS), 2011)
